Laboratory results as given in US10793525B2, “13-cis-RAMBA retinamides that degrade MNKs for treating cancer” (UNIVERSITY OF MARYLAND, BALTIMORE, priority 2014, dated 2020).
Some results were stated once for a whole list of compounds, not compound by compound. Some ranges recur; such a range may be that of the whole group of compounds.

What was measured:
[1] = test system: MCF-7, MDA-MB-231, MDA-MB-468 and SKBR-3 human breast cancer cells; experiment: MTT cell proliferation assay, four breast cancer cell lines together; type: cell-based; details: all four breast cancer cell lines; versus ATRA, 4-HPR and the Mnk inhibitors
From the text: MCF-7, MDA-MB-231, MDA-MB-468 and SKBR-3 human breast cancer cells and LNCaP, PC-3, and CWR22Rv1 human prostate carcinoma cells (American Type Culture Collection, Manassas, Va., USA) were maintained in RPMI 1640 media (Gibco-Life Technologies, Grand Island, N.Y., USA) supplemented with 10% fetal bovine serum and 1% penicillin/streptomycin. Western blotting was done as mentioned previously,^8, 13b using the following antibodies: AR, Bad, Bax, Bcl-2, eIF4E, Mnk1, Mnk-2, N-cadherin, PARP, peIF4E^ser209 purchased from Cell Signaling Technology, Danvers, Mass., USA. Anti-Mnk2 was purchased from Sigma-Aldrich and normal rabbit IgG, cyclin D1 was from Santa Cruz Biotechnology, CA, USA.
Cells were plated (2500 cells/well) in 96 well plates and treated with or without specified compounds as described previously.^8a, 12b
The clinically relevant retinoids, ATRA and 4-HPR and the Mnk inhibitor, cercosporamide were used as comparators in the assays.

[2] = test system: androgen receptor (AR) transcriptional activity; experiment: DHT-induced AR transactivation luciferase assay in LNCaP cells; type: cell-based, human; details: 10 μM, 24-hour exposure, 10 nmol/L DHT

| SMILES | anti-proliferative activities compared with positive controls [1] | inhibition of DHT induced AR transcriptional activity [2] |
| --- | --- | --- |
| CC1=C(/C=C/C(C)=C/C=C/C(C)=C\C(=O)Nc2ccccc2)C(C)(C)CCC1n1ccnc1 (stereo not shown) [Compound 16, (2Z,4E,6E,8E)-9-(3-(1H-imidazol-1-yl)-2,6,6-trimethylcyclohex-1-en-1-yl)-3,7-dimethyl-N-phenylnona-2,4,6,8-tetraenamide] | higher anti-proliferative activities | 2-4 fold |
| CC1=C(/C=C/C(C)=C/C=C/C(C)=C\C(=O)Nc2ccc(O)cc2)C(C)(C)CCC1n1ccnc1 (stereo not shown) [Compound 17, (2Z,4E,6E,8E)-9-(3-(1H-imidazol-1-yl)-2,6,6-trimethylcyclohex-1-en-1-yl)-N-(4-hydroxyphenyl)-3,7-dimethylnona-2,4,6,8-tetraenamide] | higher anti-proliferative activities | – |
| CC1=C(/C=C/C(C)=C/C=C/C(C)=C\C(=O)Nc2ccccc2O)C(C)(C)CCC1n1ccnc1 (stereo not shown) [Compound 18, (2Z,4E,6E,8E)-9-(3-(1H-imidazol-1-yl)-2,6,6-trimethylcyclohex-1-en-1-yl)-N-(2-hydroxyphenyl)-3,7-dimethylnona-2,4,6,8-tetraenamide] | higher anti-proliferative activities | – |
| CC1=C(/C=C/C(C)=C/C=C/C(C)=C\C(=O)Nc2ccc(F)cc2)C(C)(C)CCC1n1ccnc1 (stereo not shown) [Compound 19, (2Z,4E,6E,8E)-9-(3-(1H-imidazol-1-yl)-2,6,6-trimethylcyclohex-1-en-1-yl)-N-(4-fluorophenyl)-3,7-dimethylnona-2,4,6,8-tetraenamide] | higher anti-proliferative activities | – |
| CC1=C(/C=C/C(C)=C/C=C/C(C)=C\C(=O)Nc2cccc(F)c2)C(C)(C)CCC1n1ccnc1 (stereo not shown) [Compound 20, (2Z,4E,6E,8E)-9-(3-(1H-imidazol-1-yl)-2,6,6-trimethylcyclohex-1-en-1-yl)-N-(3-fluorophenyl)-3,7-dimethylnona-2,4,6,8-tetraenamide] | higher anti-proliferative activities | 2-4 fold |
| CC1=C(/C=C/C(C)=C/C=C/C(C)=C\C(=O)NCc2ccccc2)C(C)(C)CCC1n1ccnc1 (stereo not shown) [Compound 21, (2Z,4E,6E,8E)-9-(3-(1H-imidazol-1-yl)-2,6,6-trimethylcyclohex-1-en-1-yl)-N-benzyl-3,7-dimethylnona-2,4,6,8-tetraenamide] | higher anti-proliferative activities | – |
| CC1=C(/C=C/C(C)=C/C=C/C(C)=C\C(=O)NCc2ccc(O)cc2)C(C)(C)CCC1n1ccnc1 (stereo not shown) [Compound 22, (2Z,4E,6E,8E)-9-(3-(1H-imidazol-1-yl)-2,6,6-trimethylcyclohex-1-en-1-yl)-N-(4-hydroxybenzyl)-3,7-dimethylnona-2,4,6,8-tetraenamide] | higher anti-proliferative activities | 2-4 fold |
| CC1=C(/C=C/C(C)=C/C=C/C(C)=C\C(=O)NCc2ccc(F)cc2)C(C)(C)CCC1n1ccnc1 (stereo not shown) [Compound 23, (2Z,4E,6E,8E)-9-(3-(1H-imidazol-1-yl)-2,6,6-trimethylcyclohex-1-en-1-yl)-N-(4-fluorobenzyl)-3,7-dimethylnona-2,4,6,8-tetraenamide] | higher anti-proliferative activities | – |
| CC1=C(/C=C/C(C)=C/C=C/C(C)=C\C(=O)NCc2cccc(F)c2)C(C)(C)CCC1n1ccnc1 (stereo not shown) [Compound 24, (2Z,4E,6E,8E)-9-(3-(1H-imidazol-1-yl)-2,6,6-trimethylcyclohex-1-en-1-yl)-N-(3-fluorobenzyl)-3,7-dimethylnona-2,4,6,8-tetraenamide] | higher anti-proliferative activities | – |
| CC1=C(/C=C/C(C)=C/C=C/C(C)=C\C(=O)NCCc2ccc(O)cc2)C(C)(C)CCC1n1ccnc1 (stereo not shown) [Compound 25, (2Z,4E,6E,8E)-9-(3-(1H-imidazol-1-yl)-2,6,6-trimethylcyclohex-1-en-1-yl)-N-(4-hydroxyphenethyl)-3,7-dimethylnona-2,4,6,8-tetraenamide] | higher anti-proliferative activities | – |
